According to the supplement of paper PMC4683952:
Counter-ions that a name gives are not always drawn. The list shows a part of the results. No stated cut-off is given here; in the data, active = 2.5 or more and inactive = the rest. This data set is noisy: repeats of one test often differ as much as different tests do.

What follows are compounds tested on Lgr5 (MarsCy1-Lgr5-EGFP, U2OS) (assay: cell-surface Lgr5 expression (SCi1 fluorescence, background-subtracted) relative to WT control (fold of WT control); higher = more Lgr5 at the plasma membrane). Details: U2OS MarsCy1-Lgr5-EGFP stable; treatment time: overnight; library: Prestwick; 20 µM.

Row | Structure (SMILES) | cell-surface Lgr5 expression
1 | COc1cc([C@@H]2c3cc4c(cc3[C@@H](O[C@@H]3O[C@@H]5CO[C@@H](C)O[C@H]5[C@H](O)[C@H]3O)[C@H]3COC(=O)[C@H]23)OCO4)cc(OC)c1O [Etoposide] | inactive: 0.71
2 | Nc1nc2n[nH]nc2c(=O)[nH]1 [Azaguanine-8] | inactive: 1.23
3 | CN(C)c1nc(N(C)C)nc(N(C)C)n1 [Altretamine] | inactive: 1.82
4 | CC(C)NCC(O)c1ccc2ccccc2c1 (stereo not given) [Pronethalol hydrochloride] | inactive: 0.985
5 | Cc1c(N(C)CS(=O)(=O)O)c(=O)n(-c2ccccc2)n1C [Dipyrone] | active: 3.08
6 | CN(C)[C@@H]1C(O)=C(C(=O)NCN2CCCC2)C(=O)[C@@]2(O)C(O)=C3C(=O)c4c(O)cccc4[C@@](C)(O)[C@H]3C[C@@H]12 [Rolitetracycline] | inactive: 1.82
7 | CC(NCCC(c1ccccc1)c1ccccc1)c1ccccc1 (stereo not given) [Fendiline hydrochloride] | inactive: 0.993
8 | CC[C@]12CCCN3CCc4c(n(c5ccccc45)[C@](O)(C(=O)OC)C1)[C@@H]32 [Epivincamine] | active: 2.51
9 | CC(C)NC[C@@H](O)COc1cccc2ccccc12 [(R)-Propranolol hydrochloride] | inactive: 0.785
10 | CC(=O)NC1[C@@H](O)OC(CO)[C@@H](O)[C@H]1O[C@H](C)C(=O)O (stereo in doubt) [Muramic acid, N-acetyl] | inactive: 1.25
11 | CCN(CC)CCc1nc(-c2ccccc2)no1 [Oxalamine citrate salt] | inactive: 0.383
12 | CNCC(O)c1ccc(OC(=O)C(C)(C)C)c(OC(=O)C(C)(C)C)c1 (stereo not given) [Dipivefrin hydrochloride] | active: 3.68
13 | CC(C)NCC(O)c1ccc(O)c(O)c1 (single isomer, unassigned; (+)) [(+)-Isoproterenol (+)-bitartrate salt] | inactive: 2.18
14 | CN1CCN(CCCN2c3ccccc3Sc3ccc(Cl)cc32)CC1 [Prochlorperazine dimaleate] | inactive: 0.918
15 | O=c1oc2ccccc2c(O)c1Cc1c(O)c2ccccc2oc1=O [Dicumarol] | active: 2.92
16 | COc1c2occc2c(OC)c2c(=O)cc(C)oc12 [Khellin] | inactive: 1.39
17 | Nc1cc(C(Cl)=C(Cl)Cl)c(S(N)(=O)=O)cc1S(N)(=O)=O [Clorsulon] | inactive: 1.83
18 | C[C@H](CCC(=O)O)[C@H]1CC[C@H]2[C@@H]3[C@H](O)C[C@@H]4C[C@H](O)CC[C@]4(C)[C@H]3CC[C@]12C [Chenodiol] | inactive: 1.33
19 | NNc1nncc2ccccc12 [Hydralazine hydrochloride] | inactive: 0.762
20 | CC(C)(C)NCC(O)COc1cccc2c1CCC(=O)N2 (stereo not given) [Carteolol hydrochloride] | inactive: 1.91

8 entries out of the list, arranged by SMILES length, ascending:
Row | Structure (SMILES) | cell-surface Lgr5 expression
11 | CCN(CC)CCc1nc(-c2ccccc2)no1 [Oxalamine citrate salt] | inactive: 0.383
16 | COc1c2occc2c(OC)c2c(=O)cc(C)oc12 [Khellin] | inactive: 1.39
20 | CC(C)(C)NCC(O)COc1cccc2c1CCC(=O)N2 (stereo not given) [Carteolol hydrochloride] | inactive: 1.91
14 | CN1CCN(CCCN2c3ccccc3Sc3ccc(Cl)cc32)CC1 [Prochlorperazine dimaleate] | inactive: 0.918
12 | CNCC(O)c1ccc(OC(=O)C(C)(C)C)c(OC(=O)C(C)(C)C)c1 (stereo not given) [Dipivefrin hydrochloride] | active: 3.68
10 | CC(=O)NC1[C@@H](O)OC(CO)[C@@H](O)[C@H]1O[C@H](C)C(=O)O (stereo in doubt) [Muramic acid, N-acetyl] | inactive: 1.25
6 | CN(C)[C@@H]1C(O)=C(C(=O)NCN2CCCC2)C(=O)[C@@]2(O)C(O)=C3C(=O)c4c(O)cccc4[C@@](C)(O)[C@H]3C[C@@H]12 [Rolitetracycline] | inactive: 1.82
1 | COc1cc([C@@H]2c3cc4c(cc3[C@@H](O[C@@H]3O[C@@H]5CO[C@@H](C)O[C@H]5[C@H](O)[C@H]3O)[C@H]3COC(=O)[C@H]23)OCO4)cc(OC)c1O [Etoposide] | inactive: 0.71

Remaining list, next part

Row | Structure (SMILES) | cell-surface Lgr5 expression
21 | C=C1c2c(Cl)ccc(O)c2C(=O)C2=C(O)[C@]3(O)C(=O)C(C(N)=O)=C(O)[C@@H](N(C)C)[C@@H]3[C@@H](O)[C@H]12.O=C(O)c1cc(S(=O)(=O)O)ccc1O [Meclocycline sulfosalicylate] | inactive: 1.07
22 | COc1ccc2c(c1OC)C(=O)O[C@@H]2[C@H]1c2c(cc3c(c2OC)OCO3)CCN1C [Noscapine] | inactive: 1.98
23 | CCOC(=O)O[C@]1(C(=O)COC(=O)CC)CC[C@H]2[C@@H]3CCC4=CC(=O)C=C[C@]4(C)[C@H]3[C@@H](O)C[C@@]21C [Prednicarbate] | inactive: 2.44
24 | C(=C\c1ccccc1)/CN1CCN(C(c2ccccc2)c2ccccc2)CC1 [Cinnarizine] | inactive: -0.0254
25 | O=C(C1CCCCC1)N1CC(=O)N2CCc3ccccc3C2C1 (stereo not given) [Praziquantel] | inactive: 0.703
26 | COc1ccc2c(c1)c(CC(=O)O)c(C)n2C(=O)c1ccc(Cl)cc1 [Indomethacin] | active: 2.55
27 | Nc1nc2ccc(OC(F)(F)F)cc2s1 [Riluzole hydrochloride] | inactive: 0.978
28 | Oc1cc(O)c2c(c1)O[C@H](c1ccc(O)c(O)c1)[C@H](O)C2 [Epicatechin-(-)] | inactive: 2.37
29 | CN(C(=O)C(Cl)Cl)c1ccc(OC(=O)c2ccco2)cc1 [Diloxanide furoate] | inactive: 2.31
30 | Nc1ccn([C@H]2CC[C@@H](CO)O2)c(=O)n1 [Zalcitabine] | inactive: 1.15
31 | CN(C)CCOC(C)(c1ccccc1)c1ccccn1 (stereo not given) [Doxylamine succinate] | inactive: 1.22
32 | CC(=O)c1ccc2c(c1)N(CCCN(C)C)c1ccccc1S2 [Acetopromazine maleate salt] | inactive: 2.07
33 | Oc1c(I)cc(Cl)c2cccnc12 [Clioquinol] | inactive: 1.93
34 | CC[C@H](C)[C@H](N)C1=N[C@H](C(=O)N[C@@H](CC(C)C)C(=O)N[C@H](CCC(=O)O)C(=O)N[C@H](C(=O)N[C@H]2CCCCNC(=O)[C@H](CC(N)=O)NC(=O)[C@@H](CC(=O)O)NC(=O)[C@H](Cc3cnc[nH]3)NC(=O)[C@@H](Cc3ccccc3)NC(=O)[C@H]([C@@H](C)CC)NC(=O)[C@@H](CCCN)NC2=O)[C@@H](C)CC)CS1 [Bacitracin] | inactive: 1.37
35 | CN1CCN(CCCN2c3ccccc3Sc3ccc(C(F)(F)F)cc32)CC1 [Trifluoperazine dihydrochloride] | inactive: 1.3
36 | COc1ccc(OC)c(C(O)CNC(=O)CN)c1 (stereo not given) [Midodrine hydrochloride] | inactive: 1.37
37 | Oc1ccc(/C=C/c2cc(O)cc(O)c2)cc1 [Resveratrol] | active: 2.6
38 | Cc1c(N(C)C)c(=O)n(-c2ccccc2)n1C [Amidopyrine] | inactive: 1.04
39 | NC[C@@H]1O[C@H](O[C@H]2[C@@H](O)[C@H](O[C@@H]3[C@@H](O)[C@H](N)C[C@H](N)[C@H]3O[C@H]3O[C@H](CO)[C@@H](O)[C@H](O)[C@H]3N)O[C@@H]2CO)[C@H](N)[C@@H](O)[C@@H]1O [Paromomycin sulfate] | inactive: 1.87
40 | COc1ccccc1OCC(O)CO (stereo not given) [Guaifenesin] | inactive: 1.85
